No constants are given. Whether binding was seen depends on the method and setting. For some of these results: Binding seen in cells or lysates may run through a third protein. Some binding calls cover weakened binding; strength is not graded here.
What was measured:
[1] = target: Receptor-interacting protein kinase 3 (mouse (endogenous in peritoneal macrophages)), Q9QZL0; assay: co-IP; endogenous proteins; peritoneal macrophages treated with TNF + zVAD or poly I:C + zVAD, with or without 30 min pretreatment with HG-9-91-01; lysis buffer 50 mM Tris-HCl pH 7.5, 150 mM NaCl, 1.0% Triton X-100, 1 mM EDTA, 10% glycerol; anti-RIPK3 antibody overnight at 4 °C, protein A/G magnetic beads; immunoblot; conditions: remark: other sources report otherwise
[2] = target: Receptor-interacting protein kinase 3 (mouse (endogenous in peritoneal macrophages)) (UniProt Q9QZL0); assay: as above
[3] = target: mixed lineage kinase domain-like protein (mouse (endogenous in peritoneal macrophages)) (UniProt Q9D2Y4); assay: non-reducing PAGE; peritoneal macrophages treated with TNF + zVAD, LPS + zVAD or poly I:C + zVAD; harvested in DTT-free SDS sample buffer; immunoblot with MLKL antibody
[4] = target: mixed lineage kinase domain-like protein (mouse (endogenous in peritoneal macrophages)) (UniProt Q9D2Y4); assay: non-reducing PAGE; as a4, macrophages pretreated with HG-9-91-01 for 30 min before TNF + zVAD, LPS + zVAD or poly I:C + zVAD

Chains of the proteins cited; added tags and fusions are not shown.
UniProt Q9QZL0: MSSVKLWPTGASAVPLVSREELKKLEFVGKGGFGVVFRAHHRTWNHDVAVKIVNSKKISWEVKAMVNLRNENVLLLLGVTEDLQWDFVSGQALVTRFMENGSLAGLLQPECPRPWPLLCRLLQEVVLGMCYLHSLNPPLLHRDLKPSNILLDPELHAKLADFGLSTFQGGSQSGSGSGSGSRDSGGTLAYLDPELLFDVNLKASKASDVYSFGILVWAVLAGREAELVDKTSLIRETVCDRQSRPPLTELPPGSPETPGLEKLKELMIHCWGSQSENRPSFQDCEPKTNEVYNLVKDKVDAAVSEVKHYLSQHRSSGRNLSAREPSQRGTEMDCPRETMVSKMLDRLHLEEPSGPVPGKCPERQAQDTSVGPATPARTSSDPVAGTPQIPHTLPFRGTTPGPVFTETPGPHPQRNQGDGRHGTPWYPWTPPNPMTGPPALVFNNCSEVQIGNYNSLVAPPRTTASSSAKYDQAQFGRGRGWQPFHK

B1: RIPK1, Q60855 1-656 (protein)
chain: MQPDMSLDNIKMASSDLLEKTDLDSGGFGKVSLCYHRSHGFVILKKVYTGPNRAEYNEVLLEEGKMMHRLRHSRVVKLLGIIIEEGNYSLVMEYMEKGNLMHVLKTQIDVPLSLKGRIIVEAIEGMCYLHDKGVIHKDLKPENILVDRDFHIKIADLGVASFKTWSKLTKEKDNKQKEVSSTTKKNNGGTLYYMAPEHLNDINAKPTEKSDVYSFGIVLWAIFAKKEPYENVICTEQFVICIKSGNRPNVEEILEYCPREIISLMERCWQAIPEDRPTFLGIEEEFRPFYLSHFEEYVEEDVASLKKEYPDQSPVLQRMFSLQHDCVPLPPSRSNSEQPGSLHSSQGLQMGPVEESWFSSSPEYPQDENDRSVQAKLQEEASYHAFGIFAEKQTKPQPRQNEAYNREEERKRRVSHDPFAQQRARENIKSAGARGHSDPSTTSRGIAVQQLSWPATQTVWNNGLYNQHGFGTTGTGVWYPPNLSQMYSTYKTPVPETNIPGSTPTMPYFSGPVADDLIKYTIFNSSGIQIGNHNYMDVGLNSQPPNNTCKEESTSRHQAIFDNTTSLTDEHLNPIRENLGRQWKNCARKLGFTESQIDEIDHDYERDGLKEKVYQMLQKWLMREGTKGATVGKLAQALHQCCRIDLLNHLIRASQS
binding [1]: binds

B2: mixed lineage kinase domain-like protein (protein, UniProt Q9D2Y4 1-472)
chain: MDKLGQIIKLGQLIYEQCEKMKYCRKQCQRLGNRVHGLLQPLQRLQAQGKKNLPDDITAALGRFDEVLKEANQQIEKFSKKSHIWKFVSVGNDKILFHEVNEKLRDVWEELLLLLQVYHWNTVSDVSQPASWQQEDRQDAEEDGNENMKVILMQLQISVEEINKTLKQCSLKPTQEIPQDLQIKEIPKEHLGPPWTKLKTSKMSTIYRGEYHRSPVTIKVFNNPQAESVGIVRFTFNDEIKTMKKFDSPNILRIFGICIDQTVKPPEFSIVMEYCELGTLRELLDREKDLTMSVRSLLVLRAARGLYRLHHSETLHRNISSSSFLVAGGYQVKLAGFELSKTQNSISRTAKSTKAERSSSTIYVSPERLKNPFCLYDIKAEIYSFGIVLWEIATGKIPFEGCDSKKIRELVAEDKKQEPVGQDCPELLREIINECRAHEPSQRPSVDGRSLSGRERILERLSAVEESTDKKV
binding [2]: binds
binding [3]: binds
binding [4]: no binding (condition: cells pretreated with HG-9-91-01)
